In patent US6656735:
For at least one entry, the source does not settle the construct or the ends of the probe. For some of these results: Protein sequences can lack the tags named with them.

Legend:
[1] = target: T1, Engrailed 2 full length (En2, ChEn2) (Gallus gallus) (UniProt Q05917); experiment: EMSA; details: partially purified En2; fragment shifts; purified recombinant protein; label: 32P
T1 sequence (looked up): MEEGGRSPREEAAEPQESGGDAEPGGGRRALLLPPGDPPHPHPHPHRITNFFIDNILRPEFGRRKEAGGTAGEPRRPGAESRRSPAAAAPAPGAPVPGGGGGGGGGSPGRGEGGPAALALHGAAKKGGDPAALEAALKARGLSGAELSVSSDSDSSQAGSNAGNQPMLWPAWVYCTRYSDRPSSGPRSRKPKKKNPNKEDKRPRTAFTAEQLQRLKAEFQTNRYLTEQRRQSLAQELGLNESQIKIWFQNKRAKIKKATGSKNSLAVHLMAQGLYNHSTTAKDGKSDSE

[2] = target: EnHD (Engrailed 2 homeodomain, 60 aa) (Gallus gallus) (UniProt Q05917); experiment: footprint; details: DNase I, 5 specific footprints; 2.5 mM MgCl2, on ice; purified recombinant protein; label: 32P

Sequence	binding result [1]	binding result [2]
CTGAATTGCAACCTGCCCTGCCCCTTGTTTAGCTTCCCAAGTACTGGGCTTACAGTAGACTTGCACTGTAACACAAGCCTAGATAATAAACTTCTTTTGTGATATGTATGCAGTCTGTAACAATACAAAGTGGATTATGATGCACATTAAAATTCTGATACTGCTGTAGTGACCAAAACTATCTTTTCTTGGTGTCTTTAATTCAAATGGCTCATTTAATGCTTCATTTTAACTACCTGTAAGGGCTGCACCCTAAGCATTTACAGTTCATTTTAGTTCATAGGCTGCTTATGTAGACATGGTAACTTTATGAGTTAACAAGGATGCAGCCAGTAATAAAGGGTGGACTTGCCTTTGCATTCATAATGTAATATATTATCTTTAATTCATTACTCCATGGCAACACTGAAGTCGGTGTCTAAGACAGTGAGGACACAGCTACACTGCGTGTCTCTGTTTTGTGCTTGGCATTGAGCAAAGGCACTGGTAAGGGACCCAAAATGATAGCTCCTCTCTACATTCTCAGAGCGGATACCTAAGTAACAAGTGGCTTAAACACTCCATGAAGAAATATGAAATTATAACCAAGGAAAGAACCCTGAACAATACTCAAATAATTAGTCATTAAAAAAAATAAAGGCATATGAGCCAGCCTGG (double strand) [BPAG1e promoter BstNI fragment -2226 to -1569]	binds	binds
CTTAAATATGCTGTGGCGTGATATGCAATGCACTGCAAATACTATGCTGATAACTATTCTAAAGAATCCTGCCTACAGCCATTCATTTGCTTGCTGAGGTTTGCCTTTTGTAGCCAGCATTAAAGCCCTGCAAGTACGGGCAGAGCAGGACGATTGGGCGTCACTGGGAAAGATATGCCAAATATTTTCACCAAGAGTCATCCAGCTTCAACCACCTAAAAAACAACTCAGGTACACAGGAGCCCGGGCAGCACCAGTGAAGGTAATGCTATCAATACCAAGCACCAACCAGAAACACAAAGCTCAGATCACACAGCTGGACAAATGCTGGACAGCAAGCAGATCCCACGTGCTTCCTAACACAAGGTAAAATGCTGGACTAATCAATAAGTCAATAATCAATAAGCAAGCACACAAATTTAATGAGAAACCAAATCTGTTTCCATTTGACCATCTCTTCCATTGTTCACCGCATTAAATTAACTGGAAAAATGTTCAATTACTTTTTCTTTGTGTGATAAACTCTCTCTCCTAAGCCACTACTGTTTGGATTCTAAAAGCCAAAGACTCCACGCAGAATATTGGCTCAGTAACTAAGTGTGAATGTGTCTGGGCTTGCTTCTTCTTCACACAGACTAG (double strand) [BPAG1e promoter BstNI fragment -810 to -89]	binds	binds
